# Test results taken from the supplement of paper PMC8728848.
# Some of the results follow.
# B1: Clec39 (Caenorhabditis elegans) (protein)
# chain: MTSFYDNSSSSSKPVPLKTSRAQKIQILIFDNWKLILYGAISTLILVLAIMFSTLFFALPAANCDENSEPTKYYTTNAEITTTITTTNQKTTSTASSHLTTISSSATQIYSESSSSSTSQSTFTQSPPEISTTTIAPSDFSCQHGFTLVNNKCWKLVTSNQARPDADKICNGYGGATLFSIKSEQDNRAMIHFVKGQDIDFLWSGLLCSAGEPISCIWDIENGSTANYSNFADGFPNIVYGNCVYFITSGDEAGQWGNEQCGQVMNFVCELPATFQGKDGCKNNYEKSCYLRFDLNLTVPQAQNFCLEKCANLVSIHSANEVRFIMTIYDFIGEILIGALAPAQDFIYWLDGTPANYNNLKFFYNSTCVHMTVAPGMQNVGKWFTRFCTETGKFLCKRSIKNSCT
# Assays:
# Assay in all cases: glycan array binding signal (z-score within array); higher = stronger binding
# Details in all cases: glycan notation: IUPAC condensed, linker removed
# Gal(a1-3)Gal(b1-3)GlcNAc = biological target: Gal(a1-3)Gal(b1-3)GlcNAc
# Outline: (§1)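 The Consortium for Functional Glycomics database supplied 3228 glycan arrays, of which those lacking an available protein sequence were dropped. The binding signal, a within-array Z-score, was averaged across arrays of the same protein sequence and across linkers. Negative scores can be read as non-binding.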
# [1] = biological target: Gal(a1-3)Gal(b1-3)GlcNAc(b1-2)Man
# Outline: as §1
# [2] = biological target: Gal(a1-3)Gal(b1-3)GlcNAc(b1-2)Man(a1-3)[Gal(a1-3)Gal(b1-3)GlcNAc(b1-2)Man(a1-6)]Man(b1-4)GlcNAc(b1-4)GlcNAc
# Outline: as §1
# [3] = biological target: Gal(a1-3)Gal(b1-3)GlcNAc(b1-3)GalNAc
# Outline: as §1
# [4] = biological target: Gal(a1-3)Gal(b1-3)GlcNAc(b1-6)GalNAc
# Outline: as §1
# [5] = biological target: Gal(a1-3)Gal(b1-3)[Fuc(a1-4)]GlcNAc(b1-2)Man(a1-3)[Gal(a1-3)Gal(b1-3)[Fuc(a1-4)]GlcNAc(b1-2)Man(a1-6)]Man(b1-4)GlcNAc(b1-4)GlcNAc
# Outline: as §1
# Gal(a1-3)Gal(b1-4)Glc = biological target: Gal(a1-3)Gal(b1-4)Glc
# Outline: as §1
# Gal(a1-3)Gal(b1-4)GlcNAc = biological target: Gal(a1-3)Gal(b1-4)GlcNAc
# Outline: as §1
# [6] = biological target: Gal(a1-3)Gal(b1-4)GlcNAc(b1-2)Man
# Outline: as §1
# [7] = biological target: Gal(a1-3)Gal(b1-4)GlcNAc(b1-2)Man(a1-3)[Gal(a1-3)Gal(b1-4)GlcNAc(b1-2)Man(a1-6)]Man(b1-4)GlcNAc(b1-4)GlcNAc
# Outline: as §1
# [8] = biological target: Gal(a1-3)Gal(b1-4)GlcNAc(b1-3)GalNAc
# Outline: as §1
# [9] = biological target: Gal(a1-3)Gal(b1-4)GlcNAc(b1-6)GalNAc
# Outline: as §1
# [10] = biological target: Gal(a1-3)Gal(b1-4)[Fuc(a1-3)]GlcNAc
# Outline: as §1
# [11] = biological target: Gal(a1-3)Gal(b1-4)[Fuc(a1-3)]GlcNAc(b1-2)Man(a1-3)[Gal(a1-3)Gal(b1-4)[Fuc(a1-3)]GlcNAc(b1-2)Man(a1-6)]Man(b1-4)GlcNAc(b1-4)GlcNAc
# Outline: as §1
# Gal(a1-3)GalNAc = biological target: Gal(a1-3)GalNAc
# Outline: as §1
# [12] = biological target: Gal(a1-3)[Gal(a1-4)]Gal(b1-4)GlcNAc
# Outline: as §1
# [13] = biological target: Gal(a1-4)Gal(b1-3)GlcNAc(b1-2)Man(a1-3)[Gal(a1-4)Gal(b1-3)GlcNAc(b1-2)Man(a1-6)]Man(b1-4)GlcNAc(b1-4)GlcNAc
# Outline: as §1
# Gal(a1-4)Gal(b1-4)Glc = biological target: Gal(a1-4)Gal(b1-4)Glc
# Outline: as §1
# Gal(a1-4)Gal(b1-4)GlcNAc = biological target: Gal(a1-4)Gal(b1-4)GlcNAc
# Outline: as §1
# [14] = biological target: Gal(a1-4)Gal(b1-4)GlcNAc(b1-2)Man(a1-3)[Gal(a1-4)Gal(b1-4)GlcNAc(b1-2)Man(a1-6)]Man(b1-4)GlcNAc(b1-4)GlcNAc
# Outline: as §1
# [15] = biological target: Gal(a1-4)Gal(b1-4)GlcNAc(b1-3)Gal(b1-4)Glc
# Outline: as §1
# Gal(a1-4)GlcNAc = biological target: Gal(a1-4)GlcNAc
# Outline: as §1
# Gal(a1-6)Glc = biological target: Gal(a1-6)Glc
# Outline: as §1
# Gal(b1-2)Gal = biological target: Gal(b1-2)Gal
# Outline: as §1
# Gal(b1-3)Gal = biological target: Gal(b1-3)Gal
# Outline: as §1
# Gal(b1-3)Gal(b1-4)GlcNAc = biological target: Gal(b1-3)Gal(b1-4)GlcNAc
# Outline: as §1
# Gal(b1-3)GalNAc = biological target: Gal(b1-3)GalNAc
# Outline: as §1
# [16] = biological target: Gal(b1-3)GalNAc(a1-3)[Fuc(a1-2)]Gal(b1-4)Glc
# Outline: as §1
# [17] = biological target: Gal(b1-3)GalNAc(a1-3)[Fuc(a1-2)]Gal(b1-4)GlcNAc
# Outline: as §1
# Gal(b1-3)GalNAc(b1-3)Gal = biological target: Gal(b1-3)GalNAc(b1-3)Gal
# Outline: as §1
# [18] = biological target: Gal(b1-3)GalNAc(b1-3)Gal(a1-4)Gal(b1-4)Glc
# Outline: as §1
# [19] = biological target: Gal(b1-3)GalNAc(b1-4)Gal(b1-4)Glc
# Outline: as §1
# [20] = biological target: Gal(b1-3)GalNAc(b1-4)[Neu5Ac(a2-3)]Gal(b1-4)Glc
# Outline: as §1
# Gal(b1-3)GlcNAc = biological target: Gal(b1-3)GlcNAc
# Outline: as §1
# [21] = biological target: Gal(b1-3)GlcNAc(a1-3)Gal(b1-4)GlcNAc
# Outline: as §1
# [22] = biological target: Gal(b1-3)GlcNAc(a1-6)Gal(b1-4)GlcNAc
# Outline: as §1
# Gal(b1-3)GlcNAc(b1-2)Man = biological target: Gal(b1-3)GlcNAc(b1-2)Man
# Outline: as §1
# [23] = biological target: Gal(b1-3)GlcNAc(b1-2)Man(a1-3)[Gal(b1-3)GlcNAc(b1-2)Man(a1-6)]Man(b1-4)GlcNAc(b1-4)GlcNAc
# Outline: as §1
binder,measurement,setting,value
B1,glycan array binding signal (z-score),Gal(a1-3)Gal(b1-3)GlcNAc,0.07
same,glycan array binding signal (z-score),[1],-1.08
same,glycan array binding signal (z-score),[2],1.29
same,glycan array binding signal (z-score),[3],-0.178
same,glycan array binding signal (z-score),[4],-0.374
same,glycan array binding signal (z-score),[5],1.11
same,glycan array binding signal (z-score),Gal(a1-3)Gal(b1-4)Glc,-0.683
same,glycan array binding signal (z-score),Gal(a1-3)Gal(b1-4)GlcNAc,0.408
same,glycan array binding signal (z-score),[6],-0.329
same,glycan array binding signal (z-score),[7],0.493
same,glycan array binding signal (z-score),[8],-1.04
same,glycan array binding signal (z-score),[9],-1.28
same,glycan array binding signal (z-score),[10],-0.664
same,glycan array binding signal (z-score),[11],1.5
same,glycan array binding signal (z-score),Gal(a1-3)GalNAc,-0.307
same,glycan array binding signal (z-score),[12],-0.164
same,glycan array binding signal (z-score),[13],-0.183
same,glycan array binding signal (z-score),Gal(a1-4)Gal(b1-4)Glc,-1.72
same,glycan array binding signal (z-score),Gal(a1-4)Gal(b1-4)GlcNAc,-0.405
same,glycan array binding signal (z-score),[14],0.105
same,glycan array binding signal (z-score),[15],-0.562
same,glycan array binding signal (z-score),Gal(a1-4)GlcNAc,-0.759
same,glycan array binding signal (z-score),Gal(a1-6)Glc,-0.393
same,glycan array binding signal (z-score),Gal(b1-2)Gal,0.354
same,glycan array binding signal (z-score),Gal(b1-3)Gal,-0.611
same,glycan array binding signal (z-score),Gal(b1-3)Gal(b1-4)GlcNAc,-0.891
same,glycan array binding signal (z-score),Gal(b1-3)GalNAc,0.424
same,glycan array binding signal (z-score),[16],-0.047
same,glycan array binding signal (z-score),[17],-0.567
same,glycan array binding signal (z-score),Gal(b1-3)GalNAc(b1-3)Gal,-0.318
same,glycan array binding signal (z-score),[18],0.073
same,glycan array binding signal (z-score),[19],0.045
same,glycan array binding signal (z-score),[20],-0.59
same,glycan array binding signal (z-score),Gal(b1-3)GlcNAc,-0.56
same,glycan array binding signal (z-score),[21],-0.68
same,glycan array binding signal (z-score),[22],-0.821
same,glycan array binding signal (z-score),Gal(b1-3)GlcNAc(b1-2)Man,0.026
same,glycan array binding signal (z-score),[23],1.62

# Nothing new here: entries from further up.
binder,measurement,setting,value
B1,glycan array binding signal (z-score),Gal(a1-6)Glc,-0.393
same,glycan array binding signal (z-score),Gal(b1-2)Gal,0.354
same,glycan array binding signal (z-score),Gal(b1-3)Gal,-0.611
